No constants are given. Whether binding was seen depends on the method and setting. In cells and extracts the contact can be indirect. Some results given as binding are weak or reduced against the parent protein; the word gives no strength. For some assays here: Where a sequence is shown, tags or fusion partners need not be part of it.

The chains behind the UniProt entries cited, without tags or fusion partners.
UniProt Q04338: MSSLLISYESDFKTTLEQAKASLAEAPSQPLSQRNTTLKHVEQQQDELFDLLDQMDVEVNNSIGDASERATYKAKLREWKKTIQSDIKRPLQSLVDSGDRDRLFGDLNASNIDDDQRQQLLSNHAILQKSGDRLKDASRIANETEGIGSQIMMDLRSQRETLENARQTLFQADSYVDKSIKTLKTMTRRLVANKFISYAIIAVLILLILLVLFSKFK
UniProt P32854: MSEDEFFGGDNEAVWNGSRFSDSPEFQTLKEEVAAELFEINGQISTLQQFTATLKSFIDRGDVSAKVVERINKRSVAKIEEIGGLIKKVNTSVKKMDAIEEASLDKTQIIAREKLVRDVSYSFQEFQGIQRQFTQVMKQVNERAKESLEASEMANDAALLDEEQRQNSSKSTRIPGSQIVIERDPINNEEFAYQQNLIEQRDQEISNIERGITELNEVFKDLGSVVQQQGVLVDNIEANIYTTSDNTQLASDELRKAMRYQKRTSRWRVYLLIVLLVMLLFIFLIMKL

From US20050129678A1 (published 2005) come the findings set out here.

The target of assay [1] is Ymr197C-Vti1 (GST fusion on the yeast proteome microarray) (yeast) (UniProt Q04338). The experiment in a line: co-purification of endogenous Pep12 with the GST fusion, Western blot with anti-Pep12.
For assay [2], the target named is T1, GST-Yil033C (yeast, UniProt P07278 1-416).
T1 construct: also called Yil033C-Bcy1; Yil033C-Bcyl; not shown: glutathione S-transferase (GST) fusion tag
T1 sequence (looked up): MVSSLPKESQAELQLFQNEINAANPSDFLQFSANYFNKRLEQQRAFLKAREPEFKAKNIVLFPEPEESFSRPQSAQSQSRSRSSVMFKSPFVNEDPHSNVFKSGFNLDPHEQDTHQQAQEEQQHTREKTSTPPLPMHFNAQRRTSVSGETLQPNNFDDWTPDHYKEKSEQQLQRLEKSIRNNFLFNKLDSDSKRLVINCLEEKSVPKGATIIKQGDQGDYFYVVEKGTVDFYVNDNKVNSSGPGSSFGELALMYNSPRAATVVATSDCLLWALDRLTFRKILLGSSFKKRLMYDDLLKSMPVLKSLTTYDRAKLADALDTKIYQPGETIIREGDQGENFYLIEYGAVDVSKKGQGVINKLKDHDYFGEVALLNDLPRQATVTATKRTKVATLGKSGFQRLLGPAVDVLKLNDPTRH
The assay can be described thus: co-purification with the GST fusion, Western blot with anti-Tpk1. For orientation: In western blotting, separated proteins are transferred to a membrane and probed.

As to “endogenous Pep12 (from UniProt P32854 1-288)”, in assay [1], the binding entry is recorded as “binds”.

B1: endogenous Tpk1 (enzyme, yeast, UniProt P06244 2-397, looked up)
chain: STEEQNGGGQKSLDDRQGEESQKGETSERETTATESGNESKSVEKEGGETQEKPKQPHVTYYNEEQYKQFIAQARVTSGKYSLQDFQILRTLGTGSFGRVHLIRSRHNGRYYAMKVLKKEIVVRLKQVEHTNDERLMLSIVTHPFIIRMWGTFQDAQQIFMIMDYIEGGELFSLLRKSQRFPNPVAKFYAAEVCLALEYLHSKDIIYRDLKPENILLDKNGHIKITDFGFAKYVPDVTYTLCGTPDYIAPEVVSTKPYNKSIDWWSFGILIYEMLAGYTPFYDSNTMKTYEKILNAELRFPPFFNEDVKDLLSRLITRDLSQRLGNLQNGTEDVKNHPWFKEVVWEKLLSRNIETPYEPPIQQGQGDTSQFDKYPEEDINYGVQGEDPYADLFRDF
notes: Untagged yeast Tpk1 found in a GST fusion preparation; also called Tpk1wt; a protein with the same molecular weight as Tpk1
For the molecule B1, the binding entry in assay [2] was “binds”.
